# From patent US7806924B2 (Cordis Corporation, priority 2004, dated 2010)
# At least one structure is not confirmed: it was looked up by name or label, or the drawing left a doubt.
# Experiments:
# [1] = test system: neointimal hyperplasia; assay: Animal studies with rapamycin-coated stents, porcine; assay type: in vivo; conditions: porcine and rabbit models, 35-430 ug/15-18 mm coronary stent, maximal at about twenty-eight to thirty days
# [2] = test system: monocyte chemotactic protein (MCP-1); assay: Cytokine levels in vascular tissue after delivery from a stent; assay type: in vivo; conditions: delivered from a stent
structure (smiles),measurement,setting,value
"CO[C@H]1C[C@@H]2CC[C@@H](C)[C@@](O)(O2)C(=O)C(=O)N2CCCC[C@H]2C(=O)O[C@H]([C@H](C)C[C@@H]2CC[C@@H](O)[C@H](OC)C2)CC(=O)[C@H](C)/C=C(\C)[C@@H](O)[C@@H](OC)C(=O)[C@H](C)C[C@H](C)/C=C/C=C/C=C/1C [Rapamycin, rapamycin]",peak reduction in neointimal hyperplasia,[1],fifty to fifty-five
same,monocyte chemotactic protein (MCP-1) levels in the vascular wall,[2],highly effective in reducing
